Assay results from article PMC4496399.

Chains of the proteins cited; added tags and fusions are not shown. Lines headed by an entry give the natural chain unless they say otherwise; changes in a name come on top. Residues count along the entry.
UniProt P04629: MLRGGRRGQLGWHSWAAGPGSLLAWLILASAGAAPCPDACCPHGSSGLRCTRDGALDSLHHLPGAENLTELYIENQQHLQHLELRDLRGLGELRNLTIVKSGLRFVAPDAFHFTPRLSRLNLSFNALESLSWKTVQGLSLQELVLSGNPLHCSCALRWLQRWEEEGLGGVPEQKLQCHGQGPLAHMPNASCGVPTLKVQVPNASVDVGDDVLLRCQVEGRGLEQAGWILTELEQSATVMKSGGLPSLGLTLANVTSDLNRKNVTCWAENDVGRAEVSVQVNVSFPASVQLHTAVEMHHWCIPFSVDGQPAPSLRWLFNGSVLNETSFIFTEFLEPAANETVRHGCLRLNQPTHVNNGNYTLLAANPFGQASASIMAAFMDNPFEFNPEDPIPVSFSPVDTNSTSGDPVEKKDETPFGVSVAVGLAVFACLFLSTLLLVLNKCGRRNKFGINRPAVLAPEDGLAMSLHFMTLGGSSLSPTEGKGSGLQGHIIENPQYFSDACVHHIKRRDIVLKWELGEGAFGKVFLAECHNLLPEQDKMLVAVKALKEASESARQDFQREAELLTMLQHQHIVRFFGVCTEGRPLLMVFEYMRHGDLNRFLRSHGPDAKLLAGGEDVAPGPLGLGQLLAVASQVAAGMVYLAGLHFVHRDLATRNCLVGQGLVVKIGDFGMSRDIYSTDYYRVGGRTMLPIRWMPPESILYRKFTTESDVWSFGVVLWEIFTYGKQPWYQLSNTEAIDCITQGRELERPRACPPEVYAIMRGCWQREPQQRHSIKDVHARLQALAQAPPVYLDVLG
UniProt P16070, residues 21-742: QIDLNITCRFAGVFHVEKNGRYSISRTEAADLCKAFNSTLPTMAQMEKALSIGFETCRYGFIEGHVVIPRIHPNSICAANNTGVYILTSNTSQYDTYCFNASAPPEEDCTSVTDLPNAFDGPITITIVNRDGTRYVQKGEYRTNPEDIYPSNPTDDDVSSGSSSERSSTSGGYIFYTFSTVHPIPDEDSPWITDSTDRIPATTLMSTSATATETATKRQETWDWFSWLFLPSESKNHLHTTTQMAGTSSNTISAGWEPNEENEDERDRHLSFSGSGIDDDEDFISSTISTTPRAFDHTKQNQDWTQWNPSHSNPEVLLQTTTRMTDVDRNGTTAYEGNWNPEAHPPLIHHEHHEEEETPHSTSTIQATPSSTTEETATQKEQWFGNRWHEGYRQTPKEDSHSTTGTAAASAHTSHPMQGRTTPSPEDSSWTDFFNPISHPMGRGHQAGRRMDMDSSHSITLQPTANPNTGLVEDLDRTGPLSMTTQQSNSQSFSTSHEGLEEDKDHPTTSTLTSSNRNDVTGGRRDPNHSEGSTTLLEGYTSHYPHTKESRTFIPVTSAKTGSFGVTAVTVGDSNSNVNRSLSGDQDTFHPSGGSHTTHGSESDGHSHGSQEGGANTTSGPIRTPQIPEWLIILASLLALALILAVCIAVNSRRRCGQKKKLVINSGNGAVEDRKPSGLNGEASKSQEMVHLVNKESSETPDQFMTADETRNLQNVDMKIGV

Target: HA-TrkA Kinase-dead (UniProt P04629)
Test: proximity ligation; in situ PLA on paraformaldehyde-fixed cells without membrane permeabilization; rabbit anti-HA or rabbit anti-TrkA and mouse anti-CD44; cells untreated or treated with NGF (16 nM) for 5 or 30 min, with DMSO or K252a (10 nM) pre-incubation

- binding: binds
Substance: CD44 antigen (from UniProt P16070 21-742) (receptor)

Results are given in words; binding and its absence hold for the method and conditions named. Binding seen in cells or lysates may run through a third protein. A result given as binding can be weak or reduced; the word gives no strength.
